Reference: ChEMBL document CHEMBL5244208, “Privileged scaffolds as MAO inhibitors: Retrospect and prospects” (Eur J Med Chem, 2018)
pIC50: −log10 of the molar value.

Protein sequences, listed by entry. Tags and fused reporters are not part of them. Lines headed by an entry give the natural chain unless they say otherwise; changes in a name come on top.
UniProt P22303: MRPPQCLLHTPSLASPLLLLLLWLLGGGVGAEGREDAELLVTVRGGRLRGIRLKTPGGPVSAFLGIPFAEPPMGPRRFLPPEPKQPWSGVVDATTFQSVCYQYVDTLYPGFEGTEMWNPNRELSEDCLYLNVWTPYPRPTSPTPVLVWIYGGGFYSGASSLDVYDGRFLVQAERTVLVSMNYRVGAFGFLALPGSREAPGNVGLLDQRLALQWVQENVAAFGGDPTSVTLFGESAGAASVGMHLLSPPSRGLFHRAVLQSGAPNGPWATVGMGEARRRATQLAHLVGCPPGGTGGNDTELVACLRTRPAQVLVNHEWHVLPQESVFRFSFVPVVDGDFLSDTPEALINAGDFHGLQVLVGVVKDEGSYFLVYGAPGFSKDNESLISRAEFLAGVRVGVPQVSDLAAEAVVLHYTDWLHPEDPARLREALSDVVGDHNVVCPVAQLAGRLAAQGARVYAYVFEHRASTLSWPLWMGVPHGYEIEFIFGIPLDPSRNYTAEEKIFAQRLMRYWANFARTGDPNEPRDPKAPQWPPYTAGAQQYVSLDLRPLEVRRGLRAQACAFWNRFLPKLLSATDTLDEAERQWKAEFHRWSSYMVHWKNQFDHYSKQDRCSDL

Target: Acetylcholinesterase (Homo sapiens, UniProt P22303)
Assay: Inhibition of AChE (unknown origin) using acetylthiocholine chloride as substrate incubated for 5 mins by DTNB reagent based Ellman's method

Q: `Cc1c(C)c2ccc(OCc3cccc(F)c3)cc2oc1=O` was tested. Which pIC50 did it give?
A: 5.52

Q: With `Cc1c(C)c2ccc(OCc3cccc(Cl)c3)cc2oc1=O` as the compound, how does the pIC50 read?
A: 5.52

Q: `Cc1cccc(COc2ccc3c(C)c(C)c(=O)oc3c2)c1` was tested. Which pIC50 did it give?
A: 5.52

Q: How did the pIC50 turn out when `COc1cccc(COc2ccc3c(C)c(C)c(=O)oc3c2)c1` was run?
A: 5.52

Q: `Cc1ccc(COc2ccc3c(C)c(C)c(=O)oc3c2)cc1` was tested. Which pIC50 did it give?
A: 5.52

Q: With `Cc1c(C)c2ccc(OCc3ccc(F)cc3)cc2oc1=O` as the compound, how does the pIC50 read?
A: 5.52
